The campaign covered roughly 320,000 compounds. About 22,000 (6.9%) were called active. The inconclusive results got no clear call from the source; some entries with a clear call stand among them for comparison. The call rests on the fitted dose curve; in most records, active means well fitted inhibition curve with a large enough effect; inconclusive means small, poorly fitted or top-dose-only effect, or another doubt; inactive means no such curve, though single readings can be large or run the other way. A potency beside an inconclusive call is a rough fit, not a confirmed value.
Assay: Primary qHTS for delayed death inhibitors of the malarial parasite plastid, 96 hour incubation
Details: P. falciparum luciferase reporter growth; series mostly up to 28.7 µM; activity change, negative = inhibition: at the top concentration
Outline: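 Luminescence readout: decreased luciferase signal marks inhibited growth of reporter-expressing P. falciparum in infected red cells (2% hematocrit, 0.05% parasitemia final), exposed to compound two generations (96 h, 37 C, 5% CO2).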
On the % scale 0 is the no-effect control and ±100 the full control effect; potency means the concentration at half of the fitted maximal effect.

SMILES	Potency	activity change, negative = inhibition
CCOC(=O)C1C(=O)Oc2ccc3ccccc3c2C1C1CCOC1=O (stereo unspecified)	inconclusive: 11.7 µM [inhibitor, single point]	
Cn1nnnc1SCC(=O)N(C1CCCCC1)C1CCS(=O)(=O)C1 (stereo unspecified)		inactive: -16.4%
COc1ccc(O)c(C=Nc2cc(NC(C)=O)c(Cl)cc2Cl)c1	inconclusive: 4.15 µM [inhibitor, partial curve, poor fit]	
CCCCC(=O)N1CCCC(C)C1 (stereo unspecified)		inactive: 0.741%
Clc1ccc2c(c1)C(c1ccccc1Cl)=NCc1nnc(N3CCN(CCOc4ccccc4)CC3)n1-2	active: 9.28 µM	
Cc1ccc(CCNC(=O)C2CCN(S(=O)(=O)c3ccc4c(c3)NC(=O)CO4)CC2)cc1	inconclusive: 16.5 µM [inhibitor, single point]	
O=c1c2cc(NC(=S)NC3CCCC3)ccc2nc2n1CCCCC2	inconclusive: 14.7 µM [inhibitor, partial curve, poor fit]	
COCCn1c(=O)[nH]c(=O)c2c1nc(-c1cc(Br)c3c(c1)OCO3)n2Cc1ccccc1	inconclusive: 8.28 µM [inhibitor, partial curve, poor fit]	
Cc1ccc(N2CC(NC(=O)C(=O)c3c[nH]c4ccccc34)CC2=O)cc1C (stereo unspecified)		inactive: 15.1%
O=C(NCc1ccncc1)Nc1cccc([N+](=O)[O-])c1	inconclusive: 18.5 µM [inhibitor, single point]	
COc1ccc(CCNC(=O)C(=O)N2CCCCC2)cc1OC		inactive: -9.17%
COc1ccc(OC)c(-n2nnnc2SCC(=O)NCCc2ccccc2)c1	active: 9.28 µM	
COCCN1Cc2cccc(C(=O)Nc3ccc(S(=O)(=O)N4CCOCC4)cc3)c2C1=O		inactive: 73.9%
COc1ccccc1N1CCN(C2CCCN(C(=O)CCN3CCCCO3)C2)CC1 (stereo unspecified)	inconclusive: 16.5 µM [inhibitor, single point]	
CC(C)CC1Nc2ncnc(N3CCCCC3)c2N(Cc2ccccc2)C1=O (stereo unspecified)	inconclusive: 18.5 µM [inhibitor, single point]	
CCOC(=O)c1c(NC(=O)c2c(C(=O)O)cccc2[N+](=O)[O-])sc2c1CCCC2		inactive: 8.81%
O=C(Cn1c(=O)n(Cc2ccco2)c(=O)c2c3c(sc21)CCCC3)Nc1ccccc1	inconclusive: 2.62 µM [inhibitor, full curve]	
CCOc1ccc2c(c1)nc(SCC(=O)c1cccs1)n2C	inconclusive: 13.1 µM [inhibitor, partial curve, poor fit]	
CN(c1ccccc1)c1nc(N)c([N+](=O)[O-])c(NCc2ccccc2)n1	inconclusive: 5.22 µM [inhibitor, partial curve, poor fit]	
O=C(Nc1nnc(SCc2cccnc2)s1)C1CC(=O)N(c2ccc(F)cc2)C1 (stereo unspecified)	inconclusive: 11.7 µM [inhibitor, single point]	
Oc1ccc(-c2csc(Nc3ncccn3)n2)c(O)c1		inactive: -1.69%
Cc1ccc(NC(=O)C2C3C=CC4(CN(Cc5cccnc5)C(=O)C24)O3)cc1 (stereo unspecified)		inactive: -8.86%
COc1ccc(/C=N/N2CCOCC2)cc1Cn1nc(C)c([N+](=O)[O-])c1C	inconclusive: 14.7 µM [inhibitor, partial curve, poor fit]	
O=C(NC1CCSc2ccccc21)c1ccc(Cl)c(S(=O)(=O)N2CCOCC2)c1 (stereo unspecified)	inconclusive: 9.28 µM [inhibitor, single point]	

Looked up by compound from the entries so far, five records:
SMILES	Potency	activity change, negative = inhibition
Clc1ccc2c(c1)C(c1ccccc1Cl)=NCc1nnc(N3CCN(CCOc4ccccc4)CC3)n1-2	active: 9.28 µM	
CCOC(=O)C1C(=O)Oc2ccc3ccccc3c2C1C1CCOC1=O (stereo unspecified)	inconclusive: 11.7 µM [inhibitor, single point]	
CC(C)CC1Nc2ncnc(N3CCCCC3)c2N(Cc2ccccc2)C1=O (stereo unspecified)	inconclusive: 18.5 µM [inhibitor, single point]	
COc1ccc(OC)c(-n2nnnc2SCC(=O)NCCc2ccccc2)c1	active: 9.28 µM	
O=c1c2cc(NC(=S)NC3CCCC3)ccc2nc2n1CCCCC2	inconclusive: 14.7 µM [inhibitor, partial curve, poor fit]	

Additional compounds follow.

SMILES	Potency	activity change, negative = inhibition
CN(c1ccccc1)c1nc(N)c([N+](=O)[O-])c(N2CCCCCC2)n1		inactive: -19%
O=c1ccnc(SCc2ccccc2Cl)[nH]1	inconclusive: 9.28 µM [inhibitor, partial curve, poor fit]	
CC(=O)c1c(COC(=O)c2cccnc2)nc2ccccc2[n+]1[O-]		inactive: -1.68%
CCOC(=O)/C=C/C(=O)OCC(=O)N1CCN(C(=O)c2ccco2)CC1		inactive: 1.18%
CC1Cc2ccccc2N1S(=O)(=O)c1cccc(C(=O)Nc2cccnc2)c1 (stereo unspecified)	inconclusive: 2.62 µM [inhibitor, partial curve, poor fit]	
COc1cc(/C(C)=N/NC(=O)c2cccc(S(=O)(=O)N3CCCC3)c2)cc(OC)c1OC	inconclusive: 0.262 µM [inhibitor, full curve, poor fit]	
COc1ccc(C2C(C#N)=C(/N=C/N3CCN(C)CC3)OC3=C2C(=O)CC(C)(C)C3)cc1 (stereo unspecified)	inconclusive: 0.0026 µM [inhibitor, full curve, poor fit]	
COC(=O)c1cn(CC(=O)N2CCCCC2C)c2ccccc12 (stereo unspecified)	inconclusive: 0.0657 µM [inhibitor, partial curve, poor fit]	
CC(=O)N(C)Cc1ccc(C(=O)CSc2nnc(C3CC3)n2C2CC2)cc1	inconclusive: 0.0657 µM [inhibitor, full curve, poor fit]	
CCOc1ccc(CCNC(=O)C(C)N2C(=O)CC(C)(C)Sc3ccccc32)cc1 (stereo unspecified)		inactive: 59.4%
COc1ccccc1C(=O)NC(=O)COC(=O)CN1C(=O)NC(C)(C)C1=O		inactive: 30%
COc1ccc(-n2c(C)cc(C(=O)CN3C(=O)NC4(CCCc5sccc54)C3=O)c2C)cc1 (stereo unspecified)	active: 4.65 µM	
Cc1ccc2cccc(NC(=S)NC(=O)c3ccnn3C)c2n1	inconclusive: 10.4 µM [inhibitor, single point]	
COc1ccc(-c2cc(C(=O)NCCCN3CCOCC3)on2)cc1OC	inconclusive: 18.5 µM [inhibitor, single point]	
CCOc1ccc2nc(SCC(=O)Nc3cccc(S(=O)(=O)NC4=NCCCCC4)c3)[nH]c2c1	inconclusive: 10.4 µM [inhibitor, single point]	
COCCNC(=O)c1cccc(OC2CCN(Cc3ccc(C(=O)OC)cc3)CC2)c1	inconclusive: 1.31 µM [inhibitor, full curve]	
NS(=O)(=O)c1ccc(NC(=S)NNC(=O)c2ccc(Br)o2)cc1	inconclusive: 3.7 µM [inhibitor, full curve]	
Nc1ccccc1C(=O)OCCc1ccccc1		inactive: 301%
CCC(CC)c1nnc(NC(=O)CSCC(=O)Nc2cc(C)on2)s1	inconclusive: 9.28 µM [inhibitor, single point]	
CCCN(CC(=O)Nc1ccccc1C)C(=O)c1ccc(N2CCCC2)c([N+](=O)[O-])c1	inconclusive: 8.28 µM [inhibitor, partial curve, poor fit]	
CNC(=O)CSc1nnc(COc2ccc(Cl)cc2)n1CCOC	inconclusive: 5.86 µM [inhibitor, partial curve, poor fit]	
CCOC(=O)c1[nH]c2ccc(OC)cc2c1NC(=S)N1CCN(c2ccccn2)CC1	inconclusive: 18.5 µM [inhibitor, single point]	
C=CCn1c(SCC(=O)c2ccc(CNC(C)=O)o2)nc2ccccc2c1=O	active: 14.7 µM	
Cc1ccc(C(=O)N(CC(=O)NC2CCCC2)c2ccc3c(c2)OCCO3)s1	active: 13.1 µM	

SMILES	Potency	activity change, negative = inhibition
O=c1c(-c2ccc(O)cc2O)coc2cc(O)cc(O)c12	active: 1.17 µM	
CCOC(=O)c1ccsc1NC(=O)CCS(=O)(=O)c1ccccc1	inconclusive: 10.4 µM [inhibitor, partial curve, poor fit]	
CN(C(=O)C1CCOC1)c1nnc(-c2cnccn2)s1 (stereo unspecified)	inconclusive: 9.28 µM [inhibitor, partial curve]	
c1ccc(CCNc2nc3ccccc3s2)cc1		inactive: -35.7%
Cc1ccc2c(c1)c(/C=C/c1cc[n+](C)cc1)c(C)n2C	active: 0.465 µM	
Cc1ccccc1-n1nc(C)c2c(C(=O)NN)cc(-c3ccncc3)nc21	inconclusive: 9.28 µM [inhibitor, single point]	
CCOc1ccccc1OCCCC(=O)Nc1cccc(S(=O)(=O)N2CCOCC2)c1	inconclusive: 10.4 µM [inhibitor, single point]	
N#Cc1ccsc1NC(=O)c1ccc(Cl)c([N+](=O)[O-])c1	inconclusive: 18.5 µM [inhibitor, single point]	
CC1(c2nnc(Cc3ccccc3)o2)CC(c2ccccc2F)=NO1 (stereo unspecified)		inactive: 67.6%
COc1cccc(C(=O)CSc2nnnn2C2CCCCC2)c1		inactive: 67.2%
Cc1ccc(N(CC(=O)NCc2ccccc2)C(=O)CCC(=O)Nc2ccccn2)cc1		inactive: 5.42%
CC(=O)Nc1ccc(S(=O)(=O)NCCSCc2c(Cl)cccc2Cl)cc1	inconclusive: 0.0657 µM [inhibitor, full curve, poor fit]	
CN(C)/C=C(\C=O)c1ncc(C(F)(F)F)cc1Cl	inconclusive: 0.657 µM [inhibitor, full curve]	
O=C(NCCCCCCNC(=O)c1ccccc1O)c1ccccc1O	inconclusive: 1.65 µM [inhibitor, full curve]	
CC(C)NC(=O)C(=O)Nc1ccc2c(c1)N(S(=O)(=O)c1cccs1)CCC2	inconclusive: 18.5 µM [inhibitor, single point]	
Oc1ccccc1Nc1nc(NCc2ccco2)c2ccccc2n1	active: 2.08 µM	
CN(C)C(CNc1nnnn1-c1ccccc1)c1ccco1 (stereo unspecified)		inactive: 9.01% [at 5.75 µM]
CCOc1ccc(S(=O)(=O)N2CCC(C(=O)OC(C)C(=O)NC3CCCCC3C)CC2)cc1 (stereo unspecified)	active: 13.1 µM	
O=C(O)C1Cc2ccccc2CN1C(=O)COc1ccc(Cl)cc1Cl (stereo unspecified)	inconclusive: 18.5 µM [inhibitor, single point]	
O=C(NCCc1ccccc1)c1ccc2c(c1)N(Cc1ccccc1)CCS2		inactive: 22.6%
Cc1nn(CC(=O)N(C)C)c(=O)c2ccccc12	inconclusive: 11.7 µM [inhibitor, single point]	
Oc1ccc(/C=N/N2CCCCC2)cc1O		inactive: -17%
CCC(=O)Nc1ccc2nn(-c3ccc(F)cc3)nc2c1		inactive: 0%
